Data: PubChem BioAssay AID2551 (National Center for Advancing Translational Sciences (NCATS), 2010)
Hit rate of the full screen: of about 310,000 compounds, about 17,000 (5.5%) were called active. Inconclusive results, whose numbers are uncertain, are shown with a selection of clear calls. Calls follow the shape of the dose curve; as a rule, active = well fitted inhibition curve with a large enough effect; inconclusive = small, poorly fitted or top-dose-only effect, or effect the other way; inactive = no such curve, though single readings can be large or run the other way. Where the call is inconclusive, the potency comes from a doubtful curve fit.

Sequences of proteins named here, by UniProt entry; tags and fusion partners are left off. A change or cut given only in a name is not applied to a line headed by its entry.
UniProt P51450: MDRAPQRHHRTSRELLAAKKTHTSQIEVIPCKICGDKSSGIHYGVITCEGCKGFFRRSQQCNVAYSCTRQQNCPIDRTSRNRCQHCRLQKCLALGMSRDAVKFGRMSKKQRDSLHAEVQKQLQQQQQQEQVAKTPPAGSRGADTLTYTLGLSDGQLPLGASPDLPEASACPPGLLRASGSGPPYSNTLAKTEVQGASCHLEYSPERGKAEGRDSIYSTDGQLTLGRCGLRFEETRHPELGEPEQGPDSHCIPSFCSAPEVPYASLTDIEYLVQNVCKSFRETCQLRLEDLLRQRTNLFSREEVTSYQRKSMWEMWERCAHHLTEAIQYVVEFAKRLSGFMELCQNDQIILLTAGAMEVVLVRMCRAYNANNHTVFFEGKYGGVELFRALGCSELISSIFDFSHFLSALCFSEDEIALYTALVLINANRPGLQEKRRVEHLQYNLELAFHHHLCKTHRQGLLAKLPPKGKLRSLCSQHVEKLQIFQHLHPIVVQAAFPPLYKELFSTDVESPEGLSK

molecular target: Nuclear receptor ROR-gamma (Mus musculus) (UniProt P51450); experiment: qHTS for inhibitors of ROR gamma transcriptional activity; settings: Drosophila S2 Gal4-RORgamma UAS-luciferase reporter, 20 h; activity change, negative = inhibition: at 53.6 µM (top of the series); also: nearly all actives have a fitted effect of over 60% in size
Procedure, shortened: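 Luciferase reporter read in Schneider cells carrying Gal4-RORγ (mouse) and UAS-Photinus luciferase; cells given compound 1 h before 700 uM copper sulfate induction, then incubated 20 h at ambient temperature.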
% is scaled to controls: 0 for no effect and ±100 for the full control effect; potency is read from the fitted curve at half-maximal effect.

| Compound | Potency | activity change, negative = inhibition |
| --- | --- | --- |
| FC(F)Oc1ccccc1/C=N/n1cnc2ccccc21 | inconclusive: 22.4 µM [inhibitor, single point] | – |
| COc1cc(/C=N/NC(=O)c2ccc3c(c2)OCCO3)cc(Br)c1O | active: 15.8 µM | – |
| CCn1cc(C(=O)NC2CC(C)(C)Cc3c2cnn3-c2cccc(F)c2)cn1 (centres undefined) | inconclusive: 8.91 µM [activator, partial curve] | – |
| CCOc1cc(/C=N/NC(=O)CSc2nncn2C)ccc1OCc1ccccc1 | inconclusive: 17.8 µM [activator, single point] | – |
| CC1=NNC(=O)/C1=C\c1cn(-c2ccccc2)nc1-c1cccs1 | inconclusive: 4.47 µM [inhibitor, full curve, poor fit] | – |
| CC(C)NC(=S)NC(=O)/C=C/c1ccc(F)cc1 | active: 1.78 µM | – |
| Cc1cc(NS(=O)(=O)c2ccc(NC(=O)CCN3C(=O)c4ccccc4C3=O)cc2)no1 | inconclusive: 35.5 µM [inhibitor, single point] | – |
| COc1ccccc1/C=N\NC(=O)c1c(C)nc2ccc(Cl)cn12 | inconclusive: 12.6 µM [inhibitor, partial curve, poor fit] | – |
| Cc1ccc2c(=O)cc(C(F)F)oc2c1 | – | inactive: -21% |
| O=C(NCc1csc2ccccc12)Nc1cc(Cl)cc(Cl)c1 | inconclusive: 22.4 µM [activator, single point] | – |
| c1coc(-c2nnc(-c3ccco3)nn2)c1 | inconclusive: 10 µM [inhibitor, partial curve] | – |
| O=C(O)Cn1c(SCCOc2ccccc2F)nc2ccccc21 | – | inactive: -1.49% |
| C/C(=N/NC(=O)c1ccc(Cl)s1)c1ccc(NC(=O)COc2ccc(Cl)cc2)cc1 | inconclusive: 0.0316 µM [inhibitor, full curve, poor fit] | – |
| O=C(Cc1nc2ccccc2[nH]1)NCc1ccco1 | inconclusive: 12.6 µM [inhibitor, single point] | – |
| CC(=O)C1=C(O)C(=O)N(CCCCCC(=O)O)C1c1ccc(N(C)C)cc1 (centres undefined) | inconclusive: 12.6 µM [inhibitor, single point] | – |
| COc1ccccc1CN(C)C(=O)c1ccccc1Sc1ccccc1C#N | – | inactive: -0.867% |
| CCCCN(C)CC(O)Cn1cc(/C=C/C(=O)c2ccc(OCC)cc2)c2ccccc21 (centres undefined) | inconclusive: 35.5 µM [inhibitor, single point] | – |
| O=C(c1ccc2nc(N3CCOCC3)sc2c1)N1CCCC1 | inconclusive: 1.58 µM [activator, full curve, poor fit] | – |
| O=C(NCCc1ccccc1)c1ccc(-c2ccccc2Cl)o1 | – | inactive: 0.849% |
| COc1ccc(OC)c(C2=Nn3c(nnc3-c3ccccc3C)SC2)c1 | – | inactive: -3.75% |
| CCOC(=O)c1sc(NC(=O)C2CC2)cc1C | inconclusive: 8.91 µM [activator, partial curve] | – |
| Cc1ccccc1NS(=O)(=O)c1ccc(NC(=O)CSCc2ccc(Br)cc2)cc1 | inconclusive: 11.2 µM [activator, partial curve] | – |
| CCCCN1C(=O)/C(=C2\SC(N3CCCCC3)=NC2=O)c2ccccc21 | – | inactive: 5.48% |
| COc1cccc(Nc2ncc3ncc(=O)n(C)c3n2)c1 | inconclusive: 14.1 µM [activator, partial curve] | – |
| C=C(C)CSc1nncn1/N=C/c1ccc(OC)cc1 | – | inactive: 10.7% |

| Compound | Potency | activity change, negative = inhibition |
| --- | --- | --- |
| Cc1cccc(C2c3[nH]c4ccccc4c3CCN2C(=O)c2cc(CC(C)C)[nH]c(=O)n2)n1 (centres undefined) | active: 12.6 µM | – |
| COc1ccnc(CSC(N)=Nc2ccccc2OC)c1 | – | inactive: -101% |
| Clc1nc(Nc2ccccc2)nc(Nc2ccccc2)n1 | – | inactive: -28.4% |
| COc1ccc(NC(=O)C2Cc3ccccc3CN2C(=O)c2ccccc2)cn1 (centres undefined) | inconclusive: 10 µM [activator, partial curve, poor fit] | – |
| CC(OC(=O)c1cccs1)C(=O)Nc1nc(-c2ccccc2)cs1 (centres undefined) | inconclusive: 12.6 µM [activator, partial curve] | – |
| O=C(CCS(=O)(=O)c1ccccc1)Nc1nc2c(s1)CCCC2 | inconclusive: 7.94 µM [activator, partial curve] | – |
| COc1cccc(NC(=O)CC2C(=O)NC3CCCCC3N2C(=O)c2ccc(F)cc2)c1 (centres undefined) | inconclusive: 0.0794 µM [inhibitor, full curve, poor fit] | – |
| NC(=S)c1cc2cc(Cl)ccc2oc1=O | inconclusive: 31.6 µM [inhibitor, single point] | – |
| CCOc1ccc(CN(C)CC(O)COC(c2ccc(OC)cc2)c2ccc(OC)cc2)cc1 (centres undefined) | inconclusive: 15.8 µM [inhibitor, partial curve, poor fit] | – |
| CCOc1ccc(NC(=S)NCc2nc3ccccc3[nH]2)cc1 | inconclusive: 28.2 µM [inhibitor, single point] | – |
| COc1ccccc1NC(=O)c1c(C)nc2ccccc2c1C(=O)O | – | inactive: 12.4% |
| O=C(NC(=S)N1CCN(Cc2ccccc2)CC1)c1ccccc1 | active: 1 µM | – |
| O=C(NCc1ccco1)c1cnc2sccn2c1=O | inconclusive: 1.41 µM [inhibitor, partial curve] | – |
| c1ccc(-c2nnc(N3CCOCC3)nc2-c2ccccc2)cc1 | inconclusive: 0.0891 µM [inhibitor, single point] | – |
| Cc1oc2c(c1C(=O)NCc1cccnc1)C(=O)c1ccccc1C2=O | inconclusive: 1.12 µM [inhibitor, full curve, poor fit] | – |
| CS(=O)(=O)Nc1ccc(C2=NN(C(=O)c3ccco3)C(c3cccc(F)c3)C2)cc1 (centres undefined) | inconclusive: 12.6 µM [activator, partial curve] | – |
| c1cn2cc(CSC3CCCCC3)nc2s1 | inconclusive: 20 µM [inhibitor, single point] | – |
| C=CCOC(=O)C1=C(C)NC(=S)NC1/C=C/c1ccccc1 (centres undefined) | active: 2.51 µM | – |
| COc1ccc(NC(=O)Cn2c3ccccc3c3nc4n(c(=O)c32)CCS4)cc1OC | – | inactive: -44.2% |
| COc1cccc(OC)c1C(=O)NC(=S)Nc1ccc2c(c1)OCCO2 | active: 12.6 µM | – |
| O=c1c2c(nc3c(-c4cccc(Br)c4)c[nH]n13)CCCC2 | active: 2.51 µM | – |
| COC(=O)Cn1cc(/C=C/c2cc[n+](C)cc2)c2ccccc21 | – | inactive: 12.8% |
| COC(=O)N1CCC2(CCN(C(=O)Nc3cccc(F)c3)CC2)CC1 | – | inactive: 28.2% |
| CC1CCN(C(c2ccccc2)c2nnnn2C(C)(C)C)CC1 (centres undefined) | inconclusive: 22.4 µM [inhibitor, single point] | – |
| CCn1c(=O)c(C(=O)NNC(=O)c2ccccc2Br)c(O)c2ccccc21 | inconclusive: 15.8 µM [inhibitor, partial curve, poor fit] | – |

Retrieved by structure from the list above, five records:

| Compound | Potency | activity change, negative = inhibition |
| --- | --- | --- |
| c1coc(-c2nnc(-c3ccco3)nn2)c1 | inconclusive: 10 µM [inhibitor, partial curve] | – |
| COc1cccc(OC)c1C(=O)NC(=S)Nc1ccc2c(c1)OCCO2 | active: 12.6 µM | – |
| CCn1cc(C(=O)NC2CC(C)(C)Cc3c2cnn3-c2cccc(F)c2)cn1 (centres undefined) | inconclusive: 8.91 µM [activator, partial curve] | – |
| O=C(Cc1nc2ccccc2[nH]1)NCc1ccco1 | inconclusive: 12.6 µM [inhibitor, single point] | – |
| c1ccc(-c2nnc(N3CCOCC3)nc2-c2ccccc2)cc1 | inconclusive: 0.0891 µM [inhibitor, single point] | – |

Carrying on.

| Compound | Potency | activity change, negative = inhibition |
| --- | --- | --- |
| COc1ccc(S(=O)(=O)N2CCC(C(=O)NCCC(=O)NCc3ccccc3OC)CC2)cc1 | – | inactive: 9.37% |
| CC1=NN(c2ccc(C(=O)OC(C)C)cc2)C(=O)/C1=C\C=C\c1ccco1 | active: 14.1 µM | – |
| O=C(Nc1nc2ccccc2[nH]1)c1cccc(Cl)c1 | active: 3.98 µM | – |
| C/C(=N\Nc1nc(C)cc(=O)[nH]1)C1CC1 | inconclusive: 35.5 µM [inhibitor, single point] | – |
| COc1cccc(C2NC(=S)NC(C)=C2C(=O)c2ccccc2)c1OC (centres undefined) | inconclusive: 14.1 µM [inhibitor, partial curve, poor fit] | – |
| CCc1nc2cc([N+](=O)[O-])c([N+](=O)[O-])cc2[nH]1 | inconclusive: 14.1 µM [activator, single point] | – |
| COc1ccc(/C=C2/SC(=S)N(CCCC(=O)Nc3ccc(O)cc3)C2=O)cc1OC | – | inactive: 11.3% |
| COc1cccc(C=Nc2ccc3c(c2)OCCO3)c1O | inconclusive: 22.4 µM [inhibitor, single point] | – |
| COc1cccc(-c2cc(C(=O)N3CCN(c4ncccn4)CC3)c3ccccc3n2)c1 | inconclusive: 35.5 µM [activator, single point] | – |
| Cc1cc(C)n2nc(SCc3nnc(-c4ccc(F)cc4)o3)nc2n1 | – | inactive: 8.38% |
| CCOc1ccc(NC(=O)CSC2=NN3CCCC(=O)N=C3S2)cc1 | – | inactive: -12.2% |
| O=C(c1cc(S(=O)(=O)N2CCC3(CC2)OCCO3)ccc1F)N1CCCCC1 | – | inactive: 18.4% |
| CC(C)c1ccc(/C=C/C(=O)NC2CCCCC2)cc1 | inconclusive: 10 µM [activator, single point] | – |
| C=CCn1c(SCC(=O)NCc2ccccc2)nnc1-c1ccccc1O | inconclusive: 12.6 µM [inhibitor, single point] | – |
| CC(=O)N1CCc2cc(S(=O)(=O)NCCC(=O)NCCc3ccc(C)cc3)ccc21 | inconclusive: 31.6 µM [inhibitor, single point] | – |
| Cc1ccc2cc(/C=N/Nc3nc4ccccc4[nH]3)c(Cl)nc2c1 | active: 4.47 µM | – |
| COCCCNC(=S)N(Cc1ccccc1)Cc1ccccc1 | active: 15.8 µM | – |
| CC(C)(C)CC(C)(C)NC(=S)Nc1ccc2nc(-c3ccccn3)c(-c3ccccn3)nc2c1 | active: 7.08 µM | – |
| COC(=O)c1ccc(CNCC(=O)Nc2ccc(C(=O)OC)cc2)cc1 | – | inactive: 5.31% |
| O=C(CCl)Nc1ccc(N=Nc2ccccc2)cc1 | inconclusive: 15.8 µM [inhibitor, single point] | – |
| O=C(O)c1ccccc1C(=O)Nc1ccc(S(=O)(=O)NC2CCCCC2)cc1 | – | inactive: 30.9% |
| CCN(CC)S(=O)(=O)c1ccc(OC)c(NC(=S)Nc2cccc(C)c2)c1 | inconclusive: 35.5 µM [inhibitor, single point] | – |
| CCNC(=O)c1ccc(NS(=O)(=O)c2ccc3[nH]c(=O)[nH]c3c2)cc1 | inconclusive: 14.1 µM [inhibitor, single point] | – |
| COc1ccc2cc(C(c3nnnn3C3CCCC3)N3CCc4ccccc4C3)c(=O)[nH]c2c1 (centres undefined) | – | inactive: -16.1% |
